We go through 10 targets from the supplement of paper PMC12819154, “High-throughput peptide-centric local stability assay extends protein–ligand identification to membrane proteins, tissues and bacteria” (Nature Structural & Molecular Biology, 2025).

Amino acid sequences for entries named in this document (tags omitted). A change or cut given only in a name is not applied to a line headed by its entry.
UniProt Q9BX70: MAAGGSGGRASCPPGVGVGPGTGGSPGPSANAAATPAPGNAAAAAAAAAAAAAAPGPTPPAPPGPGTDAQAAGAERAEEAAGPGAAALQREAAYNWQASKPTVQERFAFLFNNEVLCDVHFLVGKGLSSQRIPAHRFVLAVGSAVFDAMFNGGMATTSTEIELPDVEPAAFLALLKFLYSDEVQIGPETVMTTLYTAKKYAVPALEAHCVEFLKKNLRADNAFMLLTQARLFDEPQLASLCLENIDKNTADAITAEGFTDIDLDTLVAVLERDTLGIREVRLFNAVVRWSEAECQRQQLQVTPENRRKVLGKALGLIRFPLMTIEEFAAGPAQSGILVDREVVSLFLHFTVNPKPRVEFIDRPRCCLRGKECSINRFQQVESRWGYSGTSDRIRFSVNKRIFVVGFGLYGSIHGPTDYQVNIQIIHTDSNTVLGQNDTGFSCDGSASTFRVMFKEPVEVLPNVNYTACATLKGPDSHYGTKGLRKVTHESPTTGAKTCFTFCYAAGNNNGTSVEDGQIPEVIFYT
UniProt Q9BVQ7: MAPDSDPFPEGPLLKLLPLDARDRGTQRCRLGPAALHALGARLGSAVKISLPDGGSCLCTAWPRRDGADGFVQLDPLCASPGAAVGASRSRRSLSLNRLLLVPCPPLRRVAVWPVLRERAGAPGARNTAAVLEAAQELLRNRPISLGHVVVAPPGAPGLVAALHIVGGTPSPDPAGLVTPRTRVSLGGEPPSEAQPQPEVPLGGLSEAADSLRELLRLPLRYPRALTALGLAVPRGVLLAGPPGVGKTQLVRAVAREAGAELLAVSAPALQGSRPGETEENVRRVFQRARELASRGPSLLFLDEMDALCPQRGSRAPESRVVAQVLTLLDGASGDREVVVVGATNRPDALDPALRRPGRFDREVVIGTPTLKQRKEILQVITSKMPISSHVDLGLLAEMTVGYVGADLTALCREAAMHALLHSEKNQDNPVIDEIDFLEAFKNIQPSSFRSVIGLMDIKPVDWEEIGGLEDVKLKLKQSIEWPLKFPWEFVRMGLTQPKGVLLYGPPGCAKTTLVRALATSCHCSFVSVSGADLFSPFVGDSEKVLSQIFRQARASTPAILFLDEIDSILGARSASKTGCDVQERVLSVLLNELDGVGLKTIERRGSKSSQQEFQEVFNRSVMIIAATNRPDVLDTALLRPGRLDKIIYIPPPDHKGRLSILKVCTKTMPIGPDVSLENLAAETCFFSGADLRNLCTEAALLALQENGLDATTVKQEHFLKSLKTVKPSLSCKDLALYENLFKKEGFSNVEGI
UniProt Q9BZE9, whole entry: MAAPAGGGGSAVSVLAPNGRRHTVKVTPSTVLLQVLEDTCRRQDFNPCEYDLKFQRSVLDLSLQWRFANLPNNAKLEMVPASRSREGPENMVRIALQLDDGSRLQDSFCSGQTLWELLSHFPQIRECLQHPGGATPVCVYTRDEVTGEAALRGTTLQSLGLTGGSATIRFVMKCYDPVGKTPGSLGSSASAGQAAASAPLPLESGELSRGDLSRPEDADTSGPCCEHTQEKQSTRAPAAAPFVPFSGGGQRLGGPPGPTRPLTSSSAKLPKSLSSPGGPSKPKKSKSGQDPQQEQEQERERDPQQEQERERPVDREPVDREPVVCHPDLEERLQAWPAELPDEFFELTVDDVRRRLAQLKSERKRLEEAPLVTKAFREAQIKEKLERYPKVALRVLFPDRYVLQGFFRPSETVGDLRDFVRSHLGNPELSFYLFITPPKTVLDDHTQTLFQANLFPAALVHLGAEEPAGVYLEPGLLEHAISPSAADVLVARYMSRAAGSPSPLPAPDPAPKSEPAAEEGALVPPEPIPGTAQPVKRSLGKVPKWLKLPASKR
UniProt Q9GZR2: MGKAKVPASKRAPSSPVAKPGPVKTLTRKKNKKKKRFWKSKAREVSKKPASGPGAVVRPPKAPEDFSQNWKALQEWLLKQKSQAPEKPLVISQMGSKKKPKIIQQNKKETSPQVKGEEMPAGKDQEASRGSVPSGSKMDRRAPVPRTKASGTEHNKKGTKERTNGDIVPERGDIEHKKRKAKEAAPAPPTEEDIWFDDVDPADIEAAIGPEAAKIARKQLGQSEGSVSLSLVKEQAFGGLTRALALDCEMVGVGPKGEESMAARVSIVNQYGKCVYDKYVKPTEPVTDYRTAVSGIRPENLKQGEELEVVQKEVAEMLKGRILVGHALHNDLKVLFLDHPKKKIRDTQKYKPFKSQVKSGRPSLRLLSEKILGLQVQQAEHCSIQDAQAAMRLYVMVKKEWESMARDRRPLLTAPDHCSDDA
UniProt Q9H1C7: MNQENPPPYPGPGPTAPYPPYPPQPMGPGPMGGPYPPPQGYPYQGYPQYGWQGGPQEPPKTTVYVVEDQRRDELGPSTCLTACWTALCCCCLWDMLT
UniProt Q9H1B7, whole entry: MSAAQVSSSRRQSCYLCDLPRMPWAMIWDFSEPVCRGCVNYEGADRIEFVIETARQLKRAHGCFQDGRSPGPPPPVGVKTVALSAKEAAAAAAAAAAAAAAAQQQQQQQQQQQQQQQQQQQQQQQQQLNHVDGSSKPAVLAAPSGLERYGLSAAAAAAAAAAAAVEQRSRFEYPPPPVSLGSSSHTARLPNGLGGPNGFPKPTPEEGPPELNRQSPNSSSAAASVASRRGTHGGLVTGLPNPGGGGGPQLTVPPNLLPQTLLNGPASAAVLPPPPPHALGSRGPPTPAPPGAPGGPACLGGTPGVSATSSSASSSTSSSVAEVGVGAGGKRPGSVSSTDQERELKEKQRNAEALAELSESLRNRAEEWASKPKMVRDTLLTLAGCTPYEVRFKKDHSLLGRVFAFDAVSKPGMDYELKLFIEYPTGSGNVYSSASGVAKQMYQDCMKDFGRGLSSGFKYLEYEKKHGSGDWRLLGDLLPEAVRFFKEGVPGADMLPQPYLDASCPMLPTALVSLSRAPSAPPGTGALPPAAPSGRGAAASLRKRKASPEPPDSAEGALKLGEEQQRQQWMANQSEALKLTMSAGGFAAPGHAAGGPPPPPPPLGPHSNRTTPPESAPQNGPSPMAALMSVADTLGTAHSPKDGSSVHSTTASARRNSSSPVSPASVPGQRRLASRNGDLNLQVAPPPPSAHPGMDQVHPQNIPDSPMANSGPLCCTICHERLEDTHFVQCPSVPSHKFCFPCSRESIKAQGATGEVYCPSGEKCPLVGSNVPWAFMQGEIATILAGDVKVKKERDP
UniProt Q9H116: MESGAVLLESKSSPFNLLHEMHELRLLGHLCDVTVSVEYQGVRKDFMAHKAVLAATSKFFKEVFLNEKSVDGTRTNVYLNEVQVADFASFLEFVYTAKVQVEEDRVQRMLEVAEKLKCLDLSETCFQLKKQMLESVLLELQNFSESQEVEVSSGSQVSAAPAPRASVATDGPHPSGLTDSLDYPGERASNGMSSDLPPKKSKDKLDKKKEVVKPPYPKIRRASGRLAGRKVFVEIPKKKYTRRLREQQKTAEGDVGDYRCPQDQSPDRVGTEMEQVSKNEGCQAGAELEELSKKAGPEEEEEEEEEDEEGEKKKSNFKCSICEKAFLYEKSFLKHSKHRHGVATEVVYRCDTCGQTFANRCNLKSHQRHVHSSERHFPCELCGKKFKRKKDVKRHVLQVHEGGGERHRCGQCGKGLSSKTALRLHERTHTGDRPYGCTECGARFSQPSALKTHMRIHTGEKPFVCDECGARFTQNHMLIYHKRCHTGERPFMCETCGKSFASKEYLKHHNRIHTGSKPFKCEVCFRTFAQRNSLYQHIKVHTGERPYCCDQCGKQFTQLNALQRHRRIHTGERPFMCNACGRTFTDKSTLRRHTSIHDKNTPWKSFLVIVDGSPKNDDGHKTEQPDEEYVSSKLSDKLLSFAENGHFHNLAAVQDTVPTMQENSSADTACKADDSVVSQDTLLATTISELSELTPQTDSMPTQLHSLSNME
UniProt Q9H0C8: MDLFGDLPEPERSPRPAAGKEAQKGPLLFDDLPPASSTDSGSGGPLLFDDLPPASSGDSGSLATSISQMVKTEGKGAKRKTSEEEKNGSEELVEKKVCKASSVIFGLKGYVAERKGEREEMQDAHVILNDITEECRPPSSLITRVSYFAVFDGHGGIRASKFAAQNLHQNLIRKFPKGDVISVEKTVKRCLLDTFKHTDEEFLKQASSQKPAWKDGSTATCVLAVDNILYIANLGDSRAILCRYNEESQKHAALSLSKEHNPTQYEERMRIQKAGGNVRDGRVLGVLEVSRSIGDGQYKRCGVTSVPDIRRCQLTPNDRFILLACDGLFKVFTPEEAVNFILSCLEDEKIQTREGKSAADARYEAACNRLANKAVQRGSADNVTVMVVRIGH

Compound in the test: Cc1nc(Nc2ncc(C(=O)Nc3c(C)cccc3Cl)s2)cc(N2CCN(CCO)CC2)n1 [dasatinib]
Kind of test: log2 fold change of tryptic peptide abundance, ligand vs vehicle (limited proteolysis) (log2 ratio); higher = more trypsin-susceptible (destabilized). As to conditions: ligand concentration: 5 uM; sample: K562 cleared lysate.

The list shows a part of the results. Small differences around the control level are noise.

As to “BTBD2 (peptide sequence: EAAYNWQASKPTVQER, peptide start residue: 91) (UniProt Q9BX70)”, the log2 fold change was determined as 0.504.

“SPATA5L1 (peptide sequence: GVLLYGPPGCAK, peptide start residue: 500) (UniProt Q9BVQ7)”: the log2 fold change was -0.174.

Consider “ASPSCR1 (peptide sequence: ECLQHPGGATPVCVYTR, peptide start residue: 126) (UniProt Q9BZE9)”, for which the log2 fold change was determined as 0.459.

Turning to “REXO4 (peptide sequence: KEWESMAR, peptide start residue: 399) (UniProt Q9GZR2)”, the log2 fold change is -0.463.

Regarding “CYSTM1 (peptide sequence: TTVYVVEDQRR, peptide start residue: 61) (UniProt Q9H1C7)”, the log2 fold change is 0.0258.

With “UniProt Q9H1B7 (peptide sequence: SRFEYPPPPVSLGSSSHTAR, peptide start residue: 169)”, the log2 fold change was found to be 0.37.

Take “POLR2J3 (peptide sequence: ITINKDTK, peptide start residue: 19) (UniProt Q9H1A7)”: the log2 fold change came out at 0.0985.

Regarding “GZF1 (peptide sequence: AGPEEEEEEEEEDEEGEKKK, peptide start residue: 295) (UniProt Q9H116)”, the log2 fold change was found to be 0.388.

With “ILKAP (peptide sequence: NGSEELVEKK, peptide start residue: 87) (UniProt Q9H0C8)”, the log2 fold change is -0.513.

Consider “MAP1LC3B (peptide sequence: RTFEQRVEDVR, peptide start residue: 11) (UniProt Q9GZQ8)”, for which the log2 fold change was determined as 0.0608.
